Results as given in the supplement of paper PMC10849652.
The list shows a part of the results.

Protein sequences, listed by entry. Tags and fused reporters are not part of them. Lines headed by an entry give the natural chain unless they say otherwise; changes in a name come on top.
UniProt Q03013: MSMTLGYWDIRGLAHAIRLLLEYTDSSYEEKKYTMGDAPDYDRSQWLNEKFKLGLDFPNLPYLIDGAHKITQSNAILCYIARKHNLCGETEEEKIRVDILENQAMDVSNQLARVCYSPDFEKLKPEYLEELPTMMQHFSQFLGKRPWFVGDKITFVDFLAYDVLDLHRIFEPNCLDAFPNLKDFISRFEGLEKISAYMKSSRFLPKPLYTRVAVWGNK
UniProt P0C0S5, whole entry, looked up: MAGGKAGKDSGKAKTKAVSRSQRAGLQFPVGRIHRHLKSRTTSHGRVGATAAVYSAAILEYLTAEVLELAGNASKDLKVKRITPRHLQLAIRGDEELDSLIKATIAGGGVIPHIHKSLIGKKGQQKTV
UniProt P69905, whole entry, looked up: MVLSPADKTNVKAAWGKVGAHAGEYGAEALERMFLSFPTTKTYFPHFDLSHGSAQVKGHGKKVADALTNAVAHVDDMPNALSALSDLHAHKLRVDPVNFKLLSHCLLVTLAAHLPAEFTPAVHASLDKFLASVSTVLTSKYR
UniProt Q9H6D7: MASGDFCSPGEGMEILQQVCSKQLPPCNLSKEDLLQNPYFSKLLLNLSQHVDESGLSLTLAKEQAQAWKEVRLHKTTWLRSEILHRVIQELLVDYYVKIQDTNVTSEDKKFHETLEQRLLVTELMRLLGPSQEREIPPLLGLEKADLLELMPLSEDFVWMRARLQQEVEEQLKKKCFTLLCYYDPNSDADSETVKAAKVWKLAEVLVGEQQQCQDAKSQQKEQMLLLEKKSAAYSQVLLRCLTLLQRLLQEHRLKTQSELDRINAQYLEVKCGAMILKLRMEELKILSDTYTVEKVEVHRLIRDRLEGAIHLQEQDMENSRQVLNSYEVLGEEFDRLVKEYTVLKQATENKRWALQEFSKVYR
UniProt P53701: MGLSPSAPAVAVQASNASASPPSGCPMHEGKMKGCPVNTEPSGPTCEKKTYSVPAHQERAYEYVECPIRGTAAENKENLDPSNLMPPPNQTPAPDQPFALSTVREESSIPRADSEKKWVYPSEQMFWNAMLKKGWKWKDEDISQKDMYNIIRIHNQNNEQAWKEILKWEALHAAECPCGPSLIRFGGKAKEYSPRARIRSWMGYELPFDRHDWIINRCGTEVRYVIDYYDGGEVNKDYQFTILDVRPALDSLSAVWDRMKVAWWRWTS
UniProt P49841: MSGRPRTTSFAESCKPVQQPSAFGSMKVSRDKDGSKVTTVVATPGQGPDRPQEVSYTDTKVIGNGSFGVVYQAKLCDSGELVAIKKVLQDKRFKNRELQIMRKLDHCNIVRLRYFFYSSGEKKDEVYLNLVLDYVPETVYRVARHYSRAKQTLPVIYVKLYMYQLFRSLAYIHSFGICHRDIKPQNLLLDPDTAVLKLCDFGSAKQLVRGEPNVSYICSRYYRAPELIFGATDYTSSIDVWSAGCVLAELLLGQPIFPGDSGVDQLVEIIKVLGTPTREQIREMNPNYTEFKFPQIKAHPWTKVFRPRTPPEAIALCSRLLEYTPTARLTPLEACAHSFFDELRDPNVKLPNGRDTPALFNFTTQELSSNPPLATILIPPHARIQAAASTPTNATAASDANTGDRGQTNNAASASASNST
UniProt Q00403, whole entry, looked up: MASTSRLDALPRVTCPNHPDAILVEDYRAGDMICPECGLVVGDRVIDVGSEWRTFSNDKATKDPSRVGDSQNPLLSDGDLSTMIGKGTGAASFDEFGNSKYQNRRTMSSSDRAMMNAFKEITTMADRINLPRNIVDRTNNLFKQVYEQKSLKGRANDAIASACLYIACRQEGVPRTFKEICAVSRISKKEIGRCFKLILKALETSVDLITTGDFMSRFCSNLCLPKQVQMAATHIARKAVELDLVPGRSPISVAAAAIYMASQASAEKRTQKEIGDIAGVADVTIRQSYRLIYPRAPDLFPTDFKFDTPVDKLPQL
UniProt Q92664: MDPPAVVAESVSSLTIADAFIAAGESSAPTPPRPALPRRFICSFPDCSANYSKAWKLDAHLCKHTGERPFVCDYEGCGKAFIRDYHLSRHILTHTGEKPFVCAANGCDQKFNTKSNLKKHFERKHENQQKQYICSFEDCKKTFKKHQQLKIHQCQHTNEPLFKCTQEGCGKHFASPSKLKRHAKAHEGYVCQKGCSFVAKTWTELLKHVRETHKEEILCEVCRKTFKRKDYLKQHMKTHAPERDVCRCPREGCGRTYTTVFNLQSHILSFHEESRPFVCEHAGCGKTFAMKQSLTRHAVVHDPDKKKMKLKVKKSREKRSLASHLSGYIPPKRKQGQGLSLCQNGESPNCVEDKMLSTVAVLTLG
UniProt P55084: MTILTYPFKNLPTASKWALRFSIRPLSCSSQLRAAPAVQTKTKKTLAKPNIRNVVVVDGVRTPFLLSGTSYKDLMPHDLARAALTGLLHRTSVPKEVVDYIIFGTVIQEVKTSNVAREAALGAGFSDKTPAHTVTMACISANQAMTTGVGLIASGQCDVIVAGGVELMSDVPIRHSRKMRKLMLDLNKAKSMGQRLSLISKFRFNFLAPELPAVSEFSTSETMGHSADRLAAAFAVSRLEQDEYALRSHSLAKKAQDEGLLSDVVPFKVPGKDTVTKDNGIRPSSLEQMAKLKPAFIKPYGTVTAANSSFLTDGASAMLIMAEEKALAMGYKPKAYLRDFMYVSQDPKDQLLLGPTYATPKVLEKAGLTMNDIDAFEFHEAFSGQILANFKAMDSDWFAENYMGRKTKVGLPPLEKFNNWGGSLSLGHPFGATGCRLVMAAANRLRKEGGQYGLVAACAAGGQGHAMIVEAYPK
UniProt P09105: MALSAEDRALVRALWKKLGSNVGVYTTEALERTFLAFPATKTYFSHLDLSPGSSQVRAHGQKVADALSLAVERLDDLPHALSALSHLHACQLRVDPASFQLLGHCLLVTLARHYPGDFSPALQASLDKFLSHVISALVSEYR
UniProt Q7Z4V5: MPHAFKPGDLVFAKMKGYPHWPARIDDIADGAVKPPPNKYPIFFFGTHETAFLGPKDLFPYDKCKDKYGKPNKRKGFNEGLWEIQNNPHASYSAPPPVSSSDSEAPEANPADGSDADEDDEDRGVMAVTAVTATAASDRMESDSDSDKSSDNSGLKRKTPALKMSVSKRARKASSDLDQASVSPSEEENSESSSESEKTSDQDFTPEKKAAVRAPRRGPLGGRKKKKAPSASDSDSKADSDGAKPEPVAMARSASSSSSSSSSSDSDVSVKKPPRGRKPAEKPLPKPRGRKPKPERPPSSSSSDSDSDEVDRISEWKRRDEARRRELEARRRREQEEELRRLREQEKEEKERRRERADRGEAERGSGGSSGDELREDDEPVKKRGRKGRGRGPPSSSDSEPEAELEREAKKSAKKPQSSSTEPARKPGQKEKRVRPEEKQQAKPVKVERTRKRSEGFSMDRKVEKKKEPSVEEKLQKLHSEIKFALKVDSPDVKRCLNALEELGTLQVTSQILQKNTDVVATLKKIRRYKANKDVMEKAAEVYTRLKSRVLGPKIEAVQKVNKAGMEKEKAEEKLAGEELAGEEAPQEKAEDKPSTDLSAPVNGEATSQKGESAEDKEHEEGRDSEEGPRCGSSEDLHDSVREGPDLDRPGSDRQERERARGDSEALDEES
UniProt P52657, whole entry, looked up: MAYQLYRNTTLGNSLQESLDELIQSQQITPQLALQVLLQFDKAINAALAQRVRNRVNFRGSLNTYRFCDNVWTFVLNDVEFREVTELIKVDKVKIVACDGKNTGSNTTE

Tests used:
Experiment in all cases: log2 fold change, soluble protein after heating vs DMSO (PISA); higher = thermal stabilisation; K562 cells, 10 uM, 30 min; active = over 0.2 and 3.5 SD of the protein, either way, in both replicates (recomputed)
[1] = compound: NC(=O)Nc1cc(-c2cccc(F)c2)sc1C(=O)N[C@H]1CCCNC1
Method in brief: (§1)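 Quantification of soluble protein used TMTpro 16plex LC-MS/MS, with channel sums equalised. Samples were the supernatant after 21,000xg for 90 min of pooled aliquots from K562 cells (2×10^6 cells/mL) treated with 10 μM compound for 30 min, heated for 3 min over 48°C-58°C, and extracted in PBS with 0.5% NP-40 at 4°C. Values, from duplicates, describe thermal stability against control samples on a log2 fold-change scale.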

[2] = compound: NC(=O)c1cnc(N[C@@H]2CCCC[C@@H]2N)nc1Nc1cccc(-n2nccn2)c1
Method in brief: as §1

[3] = compound: NC1(c2ccc(-c3nc4ccn5c(=O)[nH]nc5c4cc3-c3ccccc3)cc2)CCC1
Method in brief: as §1

[4] = compound: NCC(=O)Nc1ccc(-n2nc(C(F)(F)F)cc2-c2ccc3c(ccc4ccccc43)c2)cc1
Method in brief: as §1

entinostat = compound: Nc1ccccc1NC(=O)c1ccc(CNC(=O)OCc2cccnc2)cc1 [entinostat]
Method in brief: as §1

vorinostat = compound: O=C(CCCCCCC(=O)Nc1ccccc1)NO [vorinostat]
Method in brief: as §1

citarinostat = compound: O=C(CCCCCCNC(=O)c1cnc(N(c2ccccc2)c2ccccc2Cl)nc1)NO [citarinostat]
Method in brief: as §1

silmitasertib = compound: O=C(O)c1ccc2c(c1)nc(Nc1cccc(Cl)c1)c1ccncc12 [silmitasertib]
Method in brief: as §1

[5] = compound: O=C1NC(=O)C(c2cnc3ccccn23)=C1c1cn2c3c(cc(F)cc13)CN(C(=O)N1CCCCC1)CC2
Method in brief: as §1

[6] = compound: c1cc(OCCN2CCCCC2)cc(-c2n[nH]c3ccc(-c4nnc[nH]4)cc23)c1
Method in brief: as §1

entospletinib = compound: c1cn2cc(-c3ccc4cn[nH]c4c3)nc(Nc3ccc(N4CCOCC4)cc3)c2n1 [entospletinib]
Method in brief: as §1

Row | Target | log2 fold change [1] | log2 fold change [2] | log2 fold change [3] | log2 fold change [4] | log2 fold change (entinostat) | log2 fold change (vorinostat) | log2 fold change (citarinostat) | log2 fold change (silmitasertib) | log2 fold change [5] | log2 fold change [6] | log2 fold change (entospletinib)
1 | GSTM4 (UniProt Q03013) | inactive: -0.071 | inactive: -0.046 | inactive: -0.121 | inactive: 0.023 | inactive: -0.068 | inactive: -0.013 | inactive: -0.079 | inactive: 0.137 | inactive: 0.151 | inactive: 0.199 | 
2 | H2AZ1 (UniProt P0C0S5) | inactive: 0.067 | inactive: 0.258 | inactive: 0.444 | inactive: -0.038 | inactive: 0.135 | inactive: 0.19 | inactive: -0.058 | inactive: 0 | inactive: 0.086 | inactive: -0.032 | 
3 | HBA1 (UniProt P69905) | inactive: 0.016 | inactive: 0.032 | inactive: 0.003 | inactive: 0.103 | inactive: 0.059 | inactive: -0.031 | inactive: 0.007 | inactive: -0.036 | inactive: -0.037 | inactive: 0.012 | 
4 | HERC2 (UniProt O95714) | inactive: 0.014 | inactive: -0.114 | inactive: -0.188 | inactive: 0.008 | inactive: -0.063 | inactive: -0.166 | inactive: 0.053 | inactive: 0.011 | inactive: 0.201 | inactive: -0.096 | inactive: 0.065
5 | HAUS4 (UniProt Q9H6D7) | inactive: 0.067 | inactive: -0.165 | inactive: 0.229 | inactive: -0.089 | inactive: 0.12 | inactive: 0.01 | inactive: -0.106 | inactive: 0.095 | inactive: 0.088 | inactive: -0.08 | 
6 | HCCS (UniProt P53701) | inactive: -0.039 | inactive: -0.082 | inactive: -0.02 | inactive: -0.029 | inactive: -0.038 | inactive: -0.014 | inactive: -0.016 | inactive: 0.042 | inactive: -0.021 | inactive: -0.058 | inactive: 0.063
7 | GSK3B isoform 2 (UniProt P49841) | inactive: -0.027 | inactive: -0.06 | inactive: -0.055 | inactive: -0.028 | inactive: 0.005 | inactive: 0.023 | inactive: 0.047 | inactive: 0.012 | active: 0.29 |  | 
8 | GTF2B (UniProt Q00403) | inactive: -0.009 | inactive: -0.08 | inactive: -0.172 | inactive: -0.056 | inactive: 0.047 | inactive: 0.211 | inactive: 0.037 | inactive: 0.005 | inactive: -0.156 | inactive: 0.022 | 
9 | GTF3A (UniProt Q92664) | inactive: -0.04 | inactive: -0.095 | inactive: 0.046 | inactive: -0.098 | inactive: -0.013 | inactive: 0.026 | inactive: 0.06 | inactive: 0.043 | inactive: 0.011 | inactive: -0.072 | 
10 | HADHB (UniProt P55084) | inactive: -0.079 | inactive: 0.021 | inactive: 0.104 | inactive: 0.078 | inactive: 0.014 | inactive: 0 | inactive: 0.037 | inactive: -0.115 | active: 0.716 | inactive: -0.056 | 
11 | HBQ1 (UniProt P09105) | inactive: 0.058 | inactive: -0.048 | inactive: -0.043 | inactive: 0.006 | inactive: 0.014 | inactive: -0.05 | inactive: 0.032 | inactive: -0.047 | inactive: -0.119 | inactive: 0.021 | 
12 | HDGFL2 (UniProt Q7Z4V5) | active: -0.273 | inactive: -0.05 | inactive: -0.022 | inactive: -0.052 | inactive: -0.139 | inactive: 0.024 | inactive: -0.032 | inactive: 0.033 | inactive: -0.093 | inactive: -0.018 | 
13 | GTF2A2 (UniProt P52657) | inactive: 0.023 | inactive: -0.028 | inactive: -0.038 | inactive: -0.008 | inactive: 0.03 | inactive: -0.044 | inactive: 0.058 | inactive: -0.008 | inactive: -0.014 | inactive: 0 | 

2 entries from above, as comma-separated lines:
Row,Target,log2 fold change [1],log2 fold change [2],log2 fold change [3],log2 fold change [4],log2 fold change (entinostat),log2 fold change (vorinostat),log2 fold change (citarinostat),log2 fold change (silmitasertib),log2 fold change [5],log2 fold change [6],log2 fold change (entospletinib)
3,HBA1 (UniProt P69905),inactive: 0.016,inactive: 0.032,inactive: 0.003,inactive: 0.103,inactive: 0.059,inactive: -0.031,inactive: 0.007,inactive: -0.036,inactive: -0.037,inactive: 0.012,
4,HERC2 (UniProt O95714),inactive: 0.014,inactive: -0.114,inactive: -0.188,inactive: 0.008,inactive: -0.063,inactive: -0.166,inactive: 0.053,inactive: 0.011,inactive: 0.201,inactive: -0.096,inactive: 0.065
